Reference: PubChem BioAssay AID248 (DTP/NCI, 2004)
The list shows only some results of the screen, not a fair sample: it is rich in T/C values a quarter to a half above the control, in often repeated tests (any T/C) and in doses without a T/C. Further doses and runs are listed elsewhere. T/C is the treated group as % of the vehicle group. Some doses have a count of surviving animals in place of a T/C: the source holds a T/C of zero for them, seemingly a mark for toxic or unscored doses. Some survivor counts are full or nearly so, which does not show that the dose was tolerated: survival well below the control is almost never listed, so the zero probably covers shortened survival too. Survivors were counted at the toxicity check, usually on the fifth day, unless a day is given; later deaths do not show. Schedules are NCI's codes, read here as Q, the interval in days (D) or hours (H), X, the number of doses. Some structures stand for samples that the source files as different forms (salt, stereo form or complex); doses refer to the form tested. Some entries hold several experiments; the results are listed from low to high. For survival time, the PubChem record calls one and a half times the control and up active, and a quarter to a half above the control has no call in these data; cut-offs in other NCI protocols can differ. Some T/C values are followed by the survivors on the day toxicity was checked, most often the fifth; without a count, all were alive then.

System: L1210 leukemia ip in BDF1 mice, survival T/C
Assay: NCI In Vivo Anticancer Drug Screen. Data for tumor model L1210 Leukemia (intraperitoneal) in B6D2F1 (BDF1) mice
Settings: higher T/C = longer survival
[1] = T/C endpoint: mean survival time, dose: 16.0 mg/kg/injection, schedule: Q01DX009 (ip), vehicle: saline

## CCC1=C(C[C@H]2NCCc3cc(OC)c(OC)cc32)C[C@H]2c3cc(OC)c(OC)cc3CCN2C1
T/C endpoint: mean survival time, dose: 2.0 mg/kg/injection, schedule: Q03HX024 (ip), vehicle: saline
  T/C: 130 % of control
T/C endpoint: mean survival time, dose: 4.0 mg/kg/injection, schedule: Q03HX008 (ip), vehicle: saline
  T/C: 129 % of control [8 of 10 alive]
T/C endpoint: mean survival time, dose: 4.0 mg/kg/injection, schedule: Q03HX016 (ip), vehicle: saline
  T/C: 127 % of control
T/C endpoint: mean survival time, dose: 4.0 mg/kg/injection, schedule: Q03HX024 (ip), vehicle: saline
  T/C: 134 % of control
T/C endpoint: mean survival time, dose: 8.0 mg/kg/injection, schedule: Q01DX005 (ip), vehicle: saline, evaluated on day 30
  T/C: 100, 113, 129, 131 % of control
T/C endpoint: mean survival time, dose: 8.0 mg/kg/injection, schedule: Q01DX005 (ip), vehicle: saline, evaluated on day 60
  T/C: 124 % of control
T/C endpoint: mean survival time, dose: 8.0 mg/kg/injection, schedule: Q01DX009 (ip), vehicle: saline
  T/C: 125 % of control [9 of 10 alive]
T/C endpoint: mean survival time, dose: 8.0 mg/kg/injection, schedule: Q03HX008 (ip), vehicle: saline
  survivor count: 0 of 10
T/C endpoint: mean survival time, dose: 8.0 mg/kg/injection, schedule: Q03HX016 (ip), vehicle: saline
  survivor count: 0 of 10
T/C endpoint: mean survival time, dose: 8.0 mg/kg/injection, schedule: Q03HX024 (ip), vehicle: saline
  survivor count: 0 of 10
T/C endpoint: mean survival time, dose: 9.28 mg/kg/injection, schedule: Q01DX005 (ip), vehicle: saline
  T/C: 132 % of control
T/C endpoint: mean survival time, dose: 16.0 mg/kg/injection, schedule: Q01DX005 (ip), vehicle: saline, evaluated on day 30
  T/C: 131, 132, 186 % of control
T/C endpoint: mean survival time, dose: 16.0 mg/kg/injection, schedule: Q01DX005 (ip), vehicle: saline, evaluated on day 60
  T/C: 102 % of control [8 of 10 alive]
T/C endpoint: mean survival time, dose: 16.0 mg/kg/injection, schedule: Q01DX005 (ip), vehicle: saline
  survivor count: 10 of 10
[1]
  T/C: 147 % of control
  survivor count: 7 of 10
T/C endpoint: mean survival time, dose: 16.0 mg/kg/injection, schedule: Q03HX008 (ip), vehicle: saline
  survivor count: 0 of 10
T/C endpoint: mean survival time, dose: 16.0 mg/kg/injection, schedule: Q03HX016 (ip), vehicle: saline
  survivor count: 0 of 10
T/C endpoint: mean survival time, dose: 16.0 mg/kg/injection, schedule: Q03HX024 (ip), vehicle: saline
  survivor count: 0 of 10
T/C endpoint: mean survival time, dose: 16.0 mg/kg/injection, schedule: Q04DX003 (ip), vehicle: saline, evaluated on day 30
  T/C: 105, 113, 115, 134 % of control
T/C endpoint: mean survival time, dose: 16.0 mg/kg/injection, schedule: Q04DX003 (ip), vehicle: saline, evaluated on day 60
  T/C: 123 % of control
T/C endpoint: mean survival time, dose: 18.56 mg/kg/injection, schedule: Q01DX005 (ip), vehicle: saline
  survivor count: 10 of 10
T/C endpoint: mean survival time, dose: 18.56 mg/kg/injection, schedule: Q04DX003 (ip), vehicle: saline
  T/C: 139 % of control
T/C endpoint: mean survival time, dose: 32.0 mg/kg/injection, schedule: Q01DX001 (ip), vehicle: saline
  T/C: 132 % of control [8 of 10 alive]
T/C endpoint: mean survival time, dose: 32.0 mg/kg/injection, schedule: Q01DX005 (ip), vehicle: saline
  survivor count: 0 of 10, 3 of 6, 10 of 10
T/C endpoint: mean survival time, dose: 32.0 mg/kg/injection, schedule: Q01DX005 (oral), vehicle: saline
  survivor count: 1 of 10
T/C endpoint: mean survival time, dose: 32.0 mg/kg/injection, schedule: Q01DX005 (sc), vehicle: saline
  survivor count: 3 of 10
T/C endpoint: mean survival time, dose: 32.0 mg/kg/injection, schedule: Q01DX009 (ip), vehicle: saline
  survivor count: 0 of 10
T/C endpoint: mean survival time, dose: 32.0 mg/kg/injection, schedule: Q03HX008 (ip), vehicle: saline
  survivor count: 0 of 10
T/C endpoint: mean survival time, dose: 32.0 mg/kg/injection, schedule: Q03HX016 (ip), vehicle: saline
  survivor count: 0 of 10
T/C endpoint: mean survival time, dose: 32.0 mg/kg/injection, schedule: Q04DX003 (ip), vehicle: saline, evaluated on day 30
  T/C: 112, 126, 134, 143 % of control
T/C endpoint: mean survival time, dose: 32.0 mg/kg/injection, schedule: Q04DX003 (ip), vehicle: saline, evaluated on day 60
  T/C: 136 % of control
T/C endpoint: mean survival time, dose: 32.0 mg/kg/injection, schedule: Q08DX002 (ip), vehicle: saline
  T/C: 125 % of control
T/C endpoint: mean survival time, dose: 37.12 mg/kg/injection, schedule: Q01DX005 (ip), vehicle: saline
  survivor count: 10 of 10
T/C endpoint: mean survival time, dose: 64.0 mg/kg/injection, schedule: Q01DX001 (ip), vehicle: saline
  survivor count: 1 of 10
T/C endpoint: mean survival time, dose: 64.0 mg/kg/injection, schedule: Q01DX001 (oral), vehicle: saline
  survivor count: 6 of 10
T/C endpoint: mean survival time, dose: 64.0 mg/kg/injection, schedule: Q01DX005 (ip), vehicle: saline
  survivor count: 0 of 10 and 0 of 6
T/C endpoint: mean survival time, dose: 64.0 mg/kg/injection, schedule: Q01DX005 (oral), vehicle: saline
  survivor count: 0 of 10
T/C endpoint: mean survival time, dose: 64.0 mg/kg/injection, schedule: Q01DX005 (sc), vehicle: saline
  survivor count: 0 of 10
T/C endpoint: mean survival time, dose: 64.0 mg/kg/injection, schedule: Q04DX003 (ip), vehicle: saline
  survivor count: 1 of 10 and 5 of 10
T/C endpoint: mean survival time, dose: 64.0 mg/kg/injection, schedule: Q08DX002 (ip), vehicle: saline
  survivor count: 0 of 10
T/C endpoint: mean survival time, dose: 74.24 mg/kg/injection, schedule: Q04DX003 (ip), vehicle: saline
  survivor count: 10 of 10
T/C endpoint: mean survival time, dose: 128.0 mg/kg/injection, schedule: Q01DX001 (ip), vehicle: saline
  survivor count: 0 of 10
T/C endpoint: mean survival time, dose: 128.0 mg/kg/injection, schedule: Q01DX001 (oral), vehicle: saline
  survivor count: 0 of 10
T/C endpoint: mean survival time, dose: 128.0 mg/kg/injection, schedule: Q01DX001 (sc), vehicle: saline
  survivor count: 4 of 10
T/C endpoint: mean survival time, dose: 128.0 mg/kg/injection, schedule: Q01DX005 (oral), vehicle: saline
  survivor count: 0 of 10
T/C endpoint: mean survival time, dose: 128.0 mg/kg/injection, schedule: Q04DX003 (ip), vehicle: saline
  survivor count: 0 of 10
T/C endpoint: mean survival time, dose: 128.0 mg/kg/injection, schedule: Q08DX002 (ip), vehicle: saline
  survivor count: 0 of 10
T/C endpoint: mean survival time, dose: 218.0 mg/kg/injection, schedule: Q04DX003 (ip), vehicle: saline
  survivor count: 0 of 6
T/C endpoint: mean survival time, dose: 256.0 mg/kg/injection, schedule: Q01DX001 (ip), vehicle: saline
  survivor count: 0 of 10
T/C endpoint: mean survival time, dose: 256.0 mg/kg/injection, schedule: Q01DX001 (oral), vehicle: saline
  survivor count: 0 of 10
T/C endpoint: mean survival time, dose: 256.0 mg/kg/injection, schedule: Q01DX001 (sc), vehicle: saline
  survivor count: 0 of 10
T/C endpoint: mean survival time, dose: 256.0 mg/kg/injection, schedule: Q08DX002 (ip), vehicle: saline
  survivor count: 0 of 10
T/C endpoint: mean survival time, dose: 512.0 mg/kg/injection, schedule: Q01DX001 (oral), vehicle: saline
  survivor count: 0 of 10
T/C endpoint: mean survival time, dose: 512.0 mg/kg/injection, schedule: Q01DX001 (sc), vehicle: saline
  survivor count: 0 of 10
T/C endpoint: mean survival time, dose: 1024.0 mg/kg/injection, schedule: Q01DX001 (oral), vehicle: saline
  survivor count: 0 of 10
T/C endpoint: median survival time, dose: 32.0 mg/kg/injection, schedule: Q04DX003 (ip), vehicle: saline
  T/C: 131 % of control
T/C endpoint: median survival time, dose: 64.0 mg/kg/injection, schedule: Q04DX003 (ip), vehicle: saline
  survivor count: 5 of 7

## Cc1ccc(NNP(Cl)(c2ccccc2)(c2ccccc2)c2ccccc2)cc1
T/C endpoint: mean survival time, dose: 200.0 mg/kg/injection, schedule: Q01DX001 (ip), vehicle: saline
  survivor count: 1 of 6
T/C endpoint: mean survival time, dose: 400.0 mg/kg/injection, schedule: Q01DX001 (ip), vehicle: saline
  survivor count: 0 of 6

## CC(C)c1cc(O)ccc1O
T/C endpoint: mean survival time, dose: 400.0 mg/kg/injection, schedule: Q01DX001 (ip), vehicle: other
  survivor count: 1 of 6

## CCOC(=O)C(I)CC (stereo not drawn)
T/C endpoint: mean survival time, dose: 200.0 mg/kg/injection, schedule: Q01DX009 (ip), vehicle: water
  survivor count: 3 of 6
T/C endpoint: mean survival time, dose: 400.0 mg/kg/injection, schedule: Q01DX009 (ip), vehicle: water
  survivor count: 0 of 6
